# In publication PMC8184751, “Proline/arginine dipeptide repeat polymers derail protein folding in amyotrophic lateral sclerosis” (Nature Communications, 2021):
# Sequences of proteins named here, by UniProt entry; tags and fusion partners are left off. Residues count along the entry.
# UniProt P62937, residues 2-164: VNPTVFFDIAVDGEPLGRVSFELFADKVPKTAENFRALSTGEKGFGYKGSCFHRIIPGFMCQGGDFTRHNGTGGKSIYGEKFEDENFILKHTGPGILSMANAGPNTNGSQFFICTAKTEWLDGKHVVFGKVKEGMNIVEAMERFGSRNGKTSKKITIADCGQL
# These are yes or no findings as the source states them, for the method shown.
# Target: T1, prolyl isomerase PPIA (human, UniProt P62937 2-164)
# T1 construct: human PPIA (peptidyl-prolyl cis-trans isomerase A, cyclophilin A); gene cloned into a modified pET28a vector; 15N-labeled for the NMR titrations, unlabeled for ITC, crystallography and folding assays; source: E. coli BL21(DE3), purified (Ni-NTA, TEV cleavage, Superdex 75); 15N-labeled in M9 minimal media for NMR
# Assay: condition: eightfold excess of GR20 (320 µM on 40 µM PPIA); NMR titration; 40 µM 15N-labeled PPIA titrated with repeat polymer from 0 to 320 µM in five steps; 1H-15N HSQC at 298 K; 25 mM HEPES, 100 mM NaCl, 2 mM DTT, pH 7.4; Kd from the attenuation of the cross-peak of Arg55 (equation for slow exchange); both purified
binder,measurement,value
"GRGRGRGRGRGRGRGRGRGRGRGRGRGRGRGRGRGRGRGR (acetylated at the N-terminus, amidated at the C-terminus) [20-dipeptide polymer GR20]",binding,no binding
